± gives the standard deviation of the averaged measurements. Only a part is listed here, and it is no random draw.
Compound: Nc1ncnc2c1ncn2[C@@H]1O[C@H](COP(=O)(O)OP(=O)(O)NP(=O)(O)O)[C@@H](O)[C@H]1O [adenylyl imidodiphosphate]
Experiment: NP40-soluble protein abundance relative to vehicle (solubility fold change) (ratio); higher = more soluble protein in presence of AMP-PNP
In short: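 In three independent experiments, Jurkat crude lysate made by Dounce homogenisation was treated for 10 min at room temperature and then 3 min at 37 °C with eight concentrations ranging from 0.1 to 10 mM. It was then solubilised with 0.8% NP40 plus benzonase for 60 min at 4 °C and ultracentrifuged. The supernatant was TMT-labelled for LC-MS/MS, and each value is the fold change against the detergent-processed vehicle for the same replicate, using vsn-normalised intensities.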

By UniProt entry, the sequences of proteins in these tests, tags left out. Where a name states a change or a piece, a line headed by the entry shows the natural chain unless it says otherwise.
UniProt Q9H2U1: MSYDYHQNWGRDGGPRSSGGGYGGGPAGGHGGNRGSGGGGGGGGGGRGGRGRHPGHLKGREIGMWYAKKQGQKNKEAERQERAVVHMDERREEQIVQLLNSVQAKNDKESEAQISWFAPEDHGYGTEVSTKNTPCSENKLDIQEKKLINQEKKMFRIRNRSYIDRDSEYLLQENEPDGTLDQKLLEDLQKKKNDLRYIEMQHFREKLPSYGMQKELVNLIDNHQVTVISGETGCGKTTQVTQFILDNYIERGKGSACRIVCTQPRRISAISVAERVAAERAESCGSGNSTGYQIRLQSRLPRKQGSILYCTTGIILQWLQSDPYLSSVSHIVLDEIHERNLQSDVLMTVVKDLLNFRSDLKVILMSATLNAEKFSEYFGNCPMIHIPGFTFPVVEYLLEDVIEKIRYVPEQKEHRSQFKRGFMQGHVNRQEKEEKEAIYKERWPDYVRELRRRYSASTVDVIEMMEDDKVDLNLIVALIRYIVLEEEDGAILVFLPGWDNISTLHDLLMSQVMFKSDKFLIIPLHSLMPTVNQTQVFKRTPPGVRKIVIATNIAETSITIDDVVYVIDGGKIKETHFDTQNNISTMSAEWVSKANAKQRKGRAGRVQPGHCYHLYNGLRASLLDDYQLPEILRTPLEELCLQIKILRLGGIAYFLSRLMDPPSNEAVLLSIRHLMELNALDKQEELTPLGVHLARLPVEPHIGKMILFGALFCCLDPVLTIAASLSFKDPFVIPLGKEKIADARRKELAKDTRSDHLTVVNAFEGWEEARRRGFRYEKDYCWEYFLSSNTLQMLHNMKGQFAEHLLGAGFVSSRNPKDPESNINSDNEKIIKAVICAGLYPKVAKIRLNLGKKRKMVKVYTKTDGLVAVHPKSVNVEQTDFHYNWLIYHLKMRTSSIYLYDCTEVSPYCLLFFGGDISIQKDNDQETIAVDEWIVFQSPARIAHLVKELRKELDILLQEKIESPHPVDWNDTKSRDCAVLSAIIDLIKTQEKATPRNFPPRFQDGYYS
UniProt Q9HAB8: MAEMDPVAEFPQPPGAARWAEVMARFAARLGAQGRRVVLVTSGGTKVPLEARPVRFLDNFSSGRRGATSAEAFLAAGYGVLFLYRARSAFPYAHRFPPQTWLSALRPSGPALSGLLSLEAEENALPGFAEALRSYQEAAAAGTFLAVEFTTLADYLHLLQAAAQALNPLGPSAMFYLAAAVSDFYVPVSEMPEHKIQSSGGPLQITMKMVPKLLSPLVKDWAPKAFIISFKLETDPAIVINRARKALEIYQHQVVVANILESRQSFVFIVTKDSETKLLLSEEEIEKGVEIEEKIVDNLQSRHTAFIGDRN
UniProt Q9HAV7: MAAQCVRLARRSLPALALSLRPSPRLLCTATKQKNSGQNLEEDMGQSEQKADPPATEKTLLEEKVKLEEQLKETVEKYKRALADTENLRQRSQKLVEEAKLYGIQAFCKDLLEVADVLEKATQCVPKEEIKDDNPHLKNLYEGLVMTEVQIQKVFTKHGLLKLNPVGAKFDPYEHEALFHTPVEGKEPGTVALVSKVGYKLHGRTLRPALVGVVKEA
UniProt Q9H4A6: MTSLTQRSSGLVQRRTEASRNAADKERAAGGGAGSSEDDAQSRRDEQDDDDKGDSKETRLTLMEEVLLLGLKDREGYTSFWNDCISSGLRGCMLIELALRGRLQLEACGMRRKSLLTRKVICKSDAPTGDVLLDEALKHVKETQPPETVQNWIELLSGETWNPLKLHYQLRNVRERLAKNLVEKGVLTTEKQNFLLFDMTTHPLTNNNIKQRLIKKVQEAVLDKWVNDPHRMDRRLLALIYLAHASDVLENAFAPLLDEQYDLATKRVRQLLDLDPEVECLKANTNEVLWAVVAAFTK
UniProt Q9GZQ3, whole entry: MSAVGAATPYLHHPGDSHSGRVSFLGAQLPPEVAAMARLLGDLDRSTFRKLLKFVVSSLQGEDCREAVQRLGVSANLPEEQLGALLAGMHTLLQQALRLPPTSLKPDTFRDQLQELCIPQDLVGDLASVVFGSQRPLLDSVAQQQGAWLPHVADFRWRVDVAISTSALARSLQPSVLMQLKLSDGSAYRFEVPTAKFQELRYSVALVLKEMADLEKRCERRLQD
UniProt Q9H9H4: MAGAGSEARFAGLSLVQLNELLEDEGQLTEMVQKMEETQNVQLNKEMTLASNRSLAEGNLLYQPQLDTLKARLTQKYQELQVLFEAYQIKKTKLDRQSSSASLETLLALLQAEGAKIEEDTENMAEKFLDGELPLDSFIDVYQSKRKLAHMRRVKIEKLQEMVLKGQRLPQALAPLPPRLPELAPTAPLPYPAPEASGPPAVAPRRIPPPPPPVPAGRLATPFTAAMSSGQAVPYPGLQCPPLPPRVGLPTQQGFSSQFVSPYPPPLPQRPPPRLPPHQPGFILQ
UniProt Q9H2H8: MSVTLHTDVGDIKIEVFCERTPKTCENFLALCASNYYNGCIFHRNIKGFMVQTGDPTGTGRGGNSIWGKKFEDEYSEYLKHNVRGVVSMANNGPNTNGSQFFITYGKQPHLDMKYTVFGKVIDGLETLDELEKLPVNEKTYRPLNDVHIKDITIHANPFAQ
UniProt Q9H0A8, whole entry: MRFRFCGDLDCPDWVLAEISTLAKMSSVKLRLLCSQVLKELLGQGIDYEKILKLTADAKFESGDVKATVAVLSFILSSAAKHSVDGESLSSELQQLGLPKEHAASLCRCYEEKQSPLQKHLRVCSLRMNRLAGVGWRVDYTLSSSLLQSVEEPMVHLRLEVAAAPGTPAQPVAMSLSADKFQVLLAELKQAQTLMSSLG
UniProt Q9NPD3, whole entry: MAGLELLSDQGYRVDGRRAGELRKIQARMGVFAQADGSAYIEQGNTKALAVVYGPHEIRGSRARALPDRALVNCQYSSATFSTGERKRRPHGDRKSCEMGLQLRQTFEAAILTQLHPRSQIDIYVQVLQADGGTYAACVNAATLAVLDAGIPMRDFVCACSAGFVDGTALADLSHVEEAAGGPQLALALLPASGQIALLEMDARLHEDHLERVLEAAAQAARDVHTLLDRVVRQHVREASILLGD
UniProt Q9H446: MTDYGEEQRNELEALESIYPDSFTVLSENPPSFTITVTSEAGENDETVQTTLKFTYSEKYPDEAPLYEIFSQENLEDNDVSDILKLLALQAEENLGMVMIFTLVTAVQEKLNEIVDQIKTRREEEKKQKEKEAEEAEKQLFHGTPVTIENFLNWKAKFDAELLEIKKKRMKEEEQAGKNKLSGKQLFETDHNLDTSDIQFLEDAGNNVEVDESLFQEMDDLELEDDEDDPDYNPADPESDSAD
UniProt Q9H074: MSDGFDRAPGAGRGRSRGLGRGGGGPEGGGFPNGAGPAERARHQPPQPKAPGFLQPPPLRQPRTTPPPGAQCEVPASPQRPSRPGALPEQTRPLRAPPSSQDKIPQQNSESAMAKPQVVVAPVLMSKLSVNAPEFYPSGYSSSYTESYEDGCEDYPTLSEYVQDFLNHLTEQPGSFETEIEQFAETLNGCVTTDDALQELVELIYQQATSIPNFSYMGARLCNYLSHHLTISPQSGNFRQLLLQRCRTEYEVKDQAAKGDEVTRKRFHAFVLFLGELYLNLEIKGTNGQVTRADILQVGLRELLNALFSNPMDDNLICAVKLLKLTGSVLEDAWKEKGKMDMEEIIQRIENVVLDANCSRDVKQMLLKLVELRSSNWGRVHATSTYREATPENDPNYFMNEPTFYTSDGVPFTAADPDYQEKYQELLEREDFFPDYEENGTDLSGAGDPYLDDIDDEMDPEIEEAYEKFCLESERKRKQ
UniProt Q9H425: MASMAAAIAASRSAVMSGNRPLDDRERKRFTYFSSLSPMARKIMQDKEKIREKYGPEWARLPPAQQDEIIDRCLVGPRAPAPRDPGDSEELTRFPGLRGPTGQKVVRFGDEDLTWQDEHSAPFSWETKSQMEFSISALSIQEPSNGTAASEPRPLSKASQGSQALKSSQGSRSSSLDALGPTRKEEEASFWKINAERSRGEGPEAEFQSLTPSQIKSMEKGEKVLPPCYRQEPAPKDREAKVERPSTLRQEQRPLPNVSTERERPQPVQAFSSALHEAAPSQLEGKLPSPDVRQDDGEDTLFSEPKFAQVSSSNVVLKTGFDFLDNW
UniProt Q9NP87, whole entry: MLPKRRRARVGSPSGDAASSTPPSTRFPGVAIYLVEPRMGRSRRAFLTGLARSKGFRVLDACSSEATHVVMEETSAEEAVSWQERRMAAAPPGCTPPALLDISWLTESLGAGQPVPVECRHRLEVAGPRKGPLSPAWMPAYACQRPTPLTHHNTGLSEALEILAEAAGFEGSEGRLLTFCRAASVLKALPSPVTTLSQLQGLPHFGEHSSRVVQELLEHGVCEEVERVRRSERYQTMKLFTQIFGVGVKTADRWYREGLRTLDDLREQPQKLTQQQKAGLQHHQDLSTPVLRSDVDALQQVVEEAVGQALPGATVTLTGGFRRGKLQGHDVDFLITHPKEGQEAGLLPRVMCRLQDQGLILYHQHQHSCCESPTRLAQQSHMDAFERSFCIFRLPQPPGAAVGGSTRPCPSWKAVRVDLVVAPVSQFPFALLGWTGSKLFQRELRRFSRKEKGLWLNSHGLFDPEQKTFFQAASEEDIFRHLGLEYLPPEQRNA
UniProt Q9NPA0: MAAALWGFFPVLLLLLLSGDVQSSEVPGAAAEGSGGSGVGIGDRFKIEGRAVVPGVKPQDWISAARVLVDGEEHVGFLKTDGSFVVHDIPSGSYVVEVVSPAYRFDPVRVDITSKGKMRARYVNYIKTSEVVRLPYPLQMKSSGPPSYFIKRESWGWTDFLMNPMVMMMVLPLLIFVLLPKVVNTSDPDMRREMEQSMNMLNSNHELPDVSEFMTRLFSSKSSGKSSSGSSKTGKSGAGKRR
UniProt Q9C0D5: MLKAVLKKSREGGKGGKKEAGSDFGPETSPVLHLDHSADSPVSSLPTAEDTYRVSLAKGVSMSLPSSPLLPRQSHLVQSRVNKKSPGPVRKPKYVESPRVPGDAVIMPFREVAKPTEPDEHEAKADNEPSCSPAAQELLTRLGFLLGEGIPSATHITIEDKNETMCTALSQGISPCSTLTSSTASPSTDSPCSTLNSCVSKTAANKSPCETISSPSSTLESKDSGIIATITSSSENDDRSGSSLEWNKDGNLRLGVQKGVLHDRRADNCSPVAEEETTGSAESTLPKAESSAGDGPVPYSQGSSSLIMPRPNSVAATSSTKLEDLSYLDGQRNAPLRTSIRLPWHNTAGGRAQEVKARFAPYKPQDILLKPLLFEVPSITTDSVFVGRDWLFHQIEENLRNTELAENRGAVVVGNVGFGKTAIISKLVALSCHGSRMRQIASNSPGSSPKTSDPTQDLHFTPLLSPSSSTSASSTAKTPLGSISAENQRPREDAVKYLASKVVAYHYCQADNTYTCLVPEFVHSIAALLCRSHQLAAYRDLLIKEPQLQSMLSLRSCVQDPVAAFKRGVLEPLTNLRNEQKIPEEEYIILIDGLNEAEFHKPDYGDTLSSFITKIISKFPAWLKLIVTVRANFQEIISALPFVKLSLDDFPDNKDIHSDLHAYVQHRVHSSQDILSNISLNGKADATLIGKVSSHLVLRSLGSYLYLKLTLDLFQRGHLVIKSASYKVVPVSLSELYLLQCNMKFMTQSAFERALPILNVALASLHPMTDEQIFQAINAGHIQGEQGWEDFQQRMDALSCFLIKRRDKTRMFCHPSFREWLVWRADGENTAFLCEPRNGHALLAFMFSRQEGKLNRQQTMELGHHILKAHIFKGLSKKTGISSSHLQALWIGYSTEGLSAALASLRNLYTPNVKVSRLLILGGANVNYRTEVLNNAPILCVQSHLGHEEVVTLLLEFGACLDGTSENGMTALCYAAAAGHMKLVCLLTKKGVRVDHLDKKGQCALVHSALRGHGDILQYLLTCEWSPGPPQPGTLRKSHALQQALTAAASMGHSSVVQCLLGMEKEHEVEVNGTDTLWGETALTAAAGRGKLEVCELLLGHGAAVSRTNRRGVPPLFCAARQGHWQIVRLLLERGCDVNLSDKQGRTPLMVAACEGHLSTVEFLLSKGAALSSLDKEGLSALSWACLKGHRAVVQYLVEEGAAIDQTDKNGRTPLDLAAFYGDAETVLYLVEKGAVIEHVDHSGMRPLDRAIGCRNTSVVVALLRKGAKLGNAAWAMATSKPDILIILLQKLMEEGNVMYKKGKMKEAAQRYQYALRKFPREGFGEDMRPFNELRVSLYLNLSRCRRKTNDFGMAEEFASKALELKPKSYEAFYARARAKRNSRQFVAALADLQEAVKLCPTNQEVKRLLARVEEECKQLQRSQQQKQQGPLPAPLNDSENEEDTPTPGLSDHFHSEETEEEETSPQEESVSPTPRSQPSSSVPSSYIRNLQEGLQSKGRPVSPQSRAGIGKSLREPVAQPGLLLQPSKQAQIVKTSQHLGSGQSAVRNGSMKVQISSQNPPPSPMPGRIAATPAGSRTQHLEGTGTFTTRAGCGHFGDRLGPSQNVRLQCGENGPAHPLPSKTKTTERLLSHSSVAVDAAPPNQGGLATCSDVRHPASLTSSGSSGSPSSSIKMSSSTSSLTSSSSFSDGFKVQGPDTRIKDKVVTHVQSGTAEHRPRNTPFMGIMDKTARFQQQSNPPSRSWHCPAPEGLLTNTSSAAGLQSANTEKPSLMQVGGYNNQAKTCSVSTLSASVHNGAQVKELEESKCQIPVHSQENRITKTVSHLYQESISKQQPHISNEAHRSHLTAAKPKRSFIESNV

Target	NP40-soluble protein abundance (concentration: 1mM)	NP40-soluble protein abundance (concentration: 2mM)	NP40-soluble protein abundance (concentration: 4mM)	NP40-soluble protein abundance (concentration: 6mM)	NP40-soluble protein abundance (concentration: 8mM)	NP40-soluble protein abundance (concentration: 10mM)
TAF9B (UniProt Q9HBM6)	1.01 ± 0.012	1.06 ± 0.063	1.02 ± 0.05	0.979 ± 0.057	1.02 ± 0.065	1.07 ± 0.074
UniProt Q9H2U1 and related entries	1.044 ± 0.0074	1.01 ± 0.071	1.02 ± 0.02	1.04 ± 0.021	1.02 ± 0.039	1.03 ± 0.028
UniProt Q9H9A5 and related entries	0.977 ± 0.019	1.03 ± 0.027	1.07 ± 0.049	1.1 ± 0.061	1.13 ± 0.076	1.17 ± 0.1
ETNK1 (UniProt Q9HBU6)	0.989 ± 0.047	0.907 ± 0.088	0.991 ± 0.047	0.914 ± 0.046	0.9757 ± 0.0013	0.887 ± 0.084
UniProt Q9H4L5 and related entries	1.02 ± 0.024	1.01 ± 0.041	0.9904 ± 0.0097	0.9706 ± 0.0096	0.96 ± 0.028	0.953 ± 0.016
UniProt Q9BZV1 and related entries	0.984 ± 0.015	0.986 ± 0.053	0.959 ± 0.021	0.9441 ± 0.0079	0.954 ± 0.018	0.963 ± 0.02
LRRC40 (UniProt Q9H9A6)	0.993 ± 0.074	0.943 ± 0.057	0.955 ± 0.051	0.918 ± 0.065	0.928 ± 0.064	0.939 ± 0.051
UniProt Q9HCM4 and related entries	1.02 ± 0.055	1.01 ± 0.029	1.02 ± 0.056	1.01 ± 0.042	0.996 ± 0.07	0.974 ± 0.043
UniProt Q9GZS1-2	1.01 ± 0.024	1.02 ± 0.031	1.07 ± 0.023	1.06 ± 0.036	1.07 ± 0.041	1.08 ± 0.034
PPCS (UniProt Q9HAB8)	1.03 ± 0.033	0.981 ± 0.038	1.01 ± 0.028	1.03 ± 0.02	1.03 ± 0.026	1.04 ± 0.021
UniProt Q9HC36	1.05 ± 0.047	1.1 ± 0.088	1.23 ± 0.12	1.37 ± 0.18	1.51 ± 0.22	1.6 ± 0.28
UniProt Q9H0S4 and related entries	0.994 ± 0.061	0.981 ± 0.022	1.11 ± 0.089	1.25 ± 0.12	1.39 ± 0.13	1.46 ± 0.14
OSGEPL1 (UniProt Q9H4B0)	1.07 ± 0.02	1.04 ± 0.05	1.04 ± 0.046	1.05 ± 0.04	1.01 ± 0.021	1 ± 0.07
TM9SF3 (UniProt Q9HD45)	0.985 ± 0.043	0.933 ± 0.03	0.978 ± 0.05	0.996 ± 0.069	1.02 ± 0.06	1 ± 0.074
PLEKHA3 (UniProt Q9HB20)	0.978 ± 0.02	0.968 ± 0.029	0.9578 ± 0.0019	0.967 ± 0.011	0.962 ± 0.029	0.956 ± 0.038
UniProt Q9H903 and related entries	1.05 ± 0.024	1.04 ± 0.079	1.06 ± 0.075	1.11 ± 0.14	1.1 ± 0.11	1.06 ± 0.016
UniProt Q9HD20 and related entries	1.05 ± 0.043	1.04 ± 0.058	1.06 ± 0.055	1.01 ± 0.022	1.02 ± 0.013	1.05 ± 0.069
UniProt Q9H6K5 and related entries	1.02 ± 0.064	1.09 ± 0.15	1.05 ± 0.047	1.02 ± 0.029	0.994 ± 0.03	1 ± 0.014
UniProt Q9BZK7 and related entries	1.01 ± 0.03	0.955 ± 0.017	1 ± 0.04	1.03 ± 0.051	1.06 ± 0.021	1.04 ± 0.078
MRPL46 (UniProt Q9H2W6)	0.981 ± 0.061	1.02 ± 0.036	1.007 ± 0.0099	0.938 ± 0.034	0.968 ± 0.065	0.928 ± 0.066

Target	NP40-soluble protein abundance (concentration: 1mM)	NP40-soluble protein abundance (concentration: 2mM)	NP40-soluble protein abundance (concentration: 4mM)	NP40-soluble protein abundance (concentration: 6mM)	NP40-soluble protein abundance (concentration: 8mM)	NP40-soluble protein abundance (concentration: 10mM)
UniProt Q9H7Z6	1.07 ± 0.029	1.05 ± 0.056	1.06 ± 0.011	1.06 ± 0.072	1.09 ± 0.041	1.09 ± 0.028
GRPEL1 (UniProt Q9HAV7)	0.932 ± 0.033	0.978 ± 0.059	0.9 ± 0.046	0.88936 ± 0.00021	0.87 ± 0.018	0.879 ± 0.037
FAM117A (UniProt Q9C073)	1.01 ± 0.009	1.02 ± 0.046	1.01 ± 0.022	0.983 ± 0.021	0.996 ± 0.03	0.962 ± 0.03
ATG5 (UniProt Q9H1Y0)	1.01 ± 0.029	0.965 ± 0.037	1.02 ± 0.034	1.02 ± 0.056	1.03 ± 0.047	1.03 ± 0.035
GOLPH3 (UniProt Q9H4A6)	1.04 ± 0.048	1.04 ± 0.038	1.03 ± 0.045	1.02 ± 0.053	1.04 ± 0.054	1.02 ± 0.059
PDCL3 (UniProt Q9H2J4)	0.94 ± 0.032	0.959 ± 0.019	0.939 ± 0.066	0.922 ± 0.038	0.925 ± 0.048	0.92 ± 0.066
UniProt Q9H7H0 and related entries	0.947 ± 0.034	0.949 ± 0.043	0.921 ± 0.062	0.949 ± 0.059	0.958 ± 0.045	0.938 ± 0.054
UniProt Q9H019 and related entries	1.02 ± 0.036	1.04 ± 0.053	1 ± 0.075	1.02 ± 0.024	1.01 ± 0.018	1.01 ± 0.058
UniProt Q9H0F7 and related entries	1 ± 0.059	0.966 ± 0.019	1.03 ± 0.055	1.07 ± 0.069	1.1 ± 0.088	1.05 ± 0.053
UniProt Q9HAF1 and related entries	0.983 ± 0.03	1.04 ± 0.049	1.02 ± 0.044	1.08 ± 0.06	1.11 ± 0.07	1.19 ± 0.11
UniProt Q9GZQ3 and related entries	0.95419 ± 0.00078	0.9652 ± 0.0042	0.992 ± 0.041	1.01 ± 0.12	1.01 ± 0.04	0.979 ± 0.1
MYH16 (UniProt Q9H6N6)	0.979 ± 0.034	0.973 ± 0.036	0.94 ± 0.038	0.963 ± 0.023	0.918 ± 0.022	0.97 ± 0.06
UniProt Q9NP80 and related entries	0.996 ± 0.008	1.04 ± 0.059	1.02 ± 0.011	1.003 ± 0.0022	0.99 ± 0.039	1.01 ± 0.039
UniProt Q9H165 and related entries	0.957 ± 0.022	0.977 ± 0.037	0.965 ± 0.018	0.937 ± 0.013	0.952 ± 0.048	0.963 ± 0.029
VPS37B (UniProt Q9H9H4)	1.02 ± 0.021	1.07 ± 0.086	1.04 ± 0.018	1.03 ± 0.043	1 ± 0.035	1.05 ± 0.061
UniProt Q9H0A0 and related entries	1.47 ± 0.19	1.5 ± 0.19	1.62 ± 0.21	1.66 ± 0.17	1.79 ± 0.25	1.8 ± 0.17
RABEP2 (UniProt Q9H5N1)	1.01 ± 0.042	1.06 ± 0.059	1.01 ± 0.077	0.973 ± 0.026	0.959 ± 0.016	0.956 ± 0.051
UniProt Q9H2H8 and related entries	1.04 ± 0.038	1.04 ± 0.032	1.04 ± 0.017	0.998 ± 0.031	1.02 ± 0.018	1.03 ± 0.038
UniProt Q9H0A8 and related entries	0.988 ± 0.027	0.996 ± 0.014	1.01 ± 0.025	1.03 ± 0.047	1.06 ± 0.03	1.06 ± 0.027
EXOSC4 (UniProt Q9NPD3)	1.02 ± 0.027	0.998 ± 0.031	1.03 ± 0.042	1.04 ± 0.039	1.09 ± 0.049	1.08 ± 0.06

3 records drawn at random from the list so far:
Target	NP40-soluble protein abundance (concentration: 1mM)	NP40-soluble protein abundance (concentration: 2mM)	NP40-soluble protein abundance (concentration: 4mM)	NP40-soluble protein abundance (concentration: 6mM)	NP40-soluble protein abundance (concentration: 8mM)	NP40-soluble protein abundance (concentration: 10mM)
UniProt Q9H903 and related entries	1.05 ± 0.024	1.04 ± 0.079	1.06 ± 0.075	1.11 ± 0.14	1.1 ± 0.11	1.06 ± 0.016
UniProt Q9H4L5 and related entries	1.02 ± 0.024	1.01 ± 0.041	0.9904 ± 0.0097	0.9706 ± 0.0096	0.96 ± 0.028	0.953 ± 0.016
UniProt Q9HAF1 and related entries	0.983 ± 0.03	1.04 ± 0.049	1.02 ± 0.044	1.08 ± 0.06	1.11 ± 0.07	1.19 ± 0.11

Later entries.

Target	NP40-soluble protein abundance (concentration: 1mM)	NP40-soluble protein abundance (concentration: 2mM)	NP40-soluble protein abundance (concentration: 4mM)	NP40-soluble protein abundance (concentration: 6mM)	NP40-soluble protein abundance (concentration: 8mM)	NP40-soluble protein abundance (concentration: 10mM)
UniProt Q9H446 and related entries	1.01 ± 0.024	1.02 ± 0.041	1.01 ± 0.03	1.01 ± 0.028	0.971 ± 0.026	1.01 ± 0.017
NCOA5 (UniProt Q9HCD5)	1.09 ± 0.062	1.18 ± 0.039	1.37 ± 0.081	1.73 ± 0.1	1.89 ± 0.14	2.17 ± 0.35
UniProt Q9H074 and related entries	1 ± 0.057	1.01 ± 0.066	1.02 ± 0.018	0.989 ± 0.044	0.9811 ± 0.0093	0.952 ± 0.067
UniProt Q9H2F5-2|Q9H2F5 and related entries	0.9929 ± 0.0039	0.982 ± 0.065	0.978 ± 0.035	0.986 ± 0.014	1.004 ± 0.0054	1.01 ± 0.032
UniProt Q9H425 and related entries	1.05 ± 0.017	1.06 ± 0.017	1.04 ± 0.029	1.02 ± 0.057	0.98 ± 0.03	0.995 ± 0.018
UniProt Q9NP87	1.03 ± 0.063	1.02 ± 0.043	1.01 ± 0.055	1.02 ± 0.04	1.03 ± 0.071	1.01 ± 0.083
UniProt Q9H3U1 and related entries	0.962 ± 0.011	0.9471 ± 0.0041	0.963 ± 0.017	0.927 ± 0.015	0.936 ± 0.02	0.915 ± 0.0094
UniProt Q9H6W3	1.02 ± 0.056	0.997 ± 0.055	1.02 ± 0.065	1.02 ± 0.065	1.06 ± 0.056	1.04 ± 0.086
UniProt Q9H9B1 and related entries	0.997 ± 0.015	1.01 ± 0.024	1 ± 0.014	1.01 ± 0.023	0.981 ± 0.012	1.02 ± 0.027
UniProt Q9H2D6-5|Q9H2D6 and related entries	0.981 ± 0.025	1.04 ± 0.046	0.994 ± 0.012	0.9799 ± 0.0089	0.965 ± 0.025	0.9722 ± 0.0043
TM6SF1 (UniProt Q9BZW5)	0.9829 ± 0.007	0.964 ± 0.013	0.973 ± 0.055	0.974 ± 0.023	1.06 ± 0.014	0.984 ± 0.053
XAB2 (UniProt Q9HCS7)	1 ± 0.05	0.936 ± 0.13	1 ± 0.026	0.97 ± 0.011	1.03 ± 0.028	0.973 ± 0.066
UCK2 (UniProt Q9BZX2)	1.04 ± 0.018	0.9952 ± 0.0077	1.03 ± 0.04	0.991 ± 0.027	1.01 ± 0.058	0.951 ± 0.029
UniProt Q9C0B5 and related entries	1.03 ± 0.019	1.04 ± 0.019	1.03 ± 0.034	1.01 ± 0.038	0.982 ± 0.025	1.01 ± 0.011
UniProt Q9NPA0	0.954 ± 0.045	0.934 ± 0.027	0.986 ± 0.062	1.04 ± 0.065	1.07 ± 0.059	1.07 ± 0.032
UniProt Q9H6U6 and related entries	1.01 ± 0.013	1.03 ± 0.01	1.02 ± 0.05	0.962 ± 0.021	0.955 ± 0.036	0.983 ± 0.01
UniProt Q9H0X9 and related entries	0.989 ± 0.046	1.03 ± 0.024	0.982 ± 0.043	0.973 ± 0.051	0.947 ± 0.021	0.964 ± 0.032
UniProt Q9H330-2	0.983 ± 0.042	1 ± 0.019	0.969 ± 0.04	0.977 ± 0.057	0.932 ± 0.038	0.965 ± 0.019
UniProt Q9C0D5 and related entries	0.9719 ± 0.0076	0.984 ± 0.075	0.956 ± 0.046	0.991 ± 0.035	0.937 ± 0.023	0.975 ± 0.026
FTO (UniProt Q9C0B1)	0.98 ± 0.02	0.942 ± 0.043	0.9778 ± 0.0041	0.955 ± 0.018	0.9727 ± 0.0014	0.936 ± 0.016

— the supplement of paper PMC6411743
